Here are results for 19 compounds from PubChem BioAssay AID248 (DTP/NCI, 2004).

The list does not hold the whole screen: it gathers tests that were run many times, whatever their T/C, doses with no T/C, and many T/C values between a quarter and a half above the control. Further doses and runs are listed elsewhere. T/C: endpoint of the treated group in % of that of the vehicle group. Some doses have a count of surviving animals in place of a T/C: the source holds a T/C of zero for them, seemingly a mark for toxic or unscored doses. Some survivor counts are full or nearly so, which does not show that the dose was tolerated: the source hardly ever lists a survival T/C far under the control, and the zero likely stands for such cases as well. Survivors were counted at the toxicity check, usually on the fifth day, unless a day is given; later deaths do not show. Schedules are NCI's codes, taken here to give the interval after Q, in days (D) or hours (H), and the number of doses after X. Some entries were tested several times; their values stand side by side, smallest first. Where survival is the endpoint, the PubChem record calls one and a half times the control and up active, and a quarter to a half above the control has no call in these data; cut-offs in other NCI protocols can differ.

This experiment relates to L1210 leukemia ip in BDF1 mice, survival T/C. As to the kind of experiment: NCI In Vivo Anticancer Drug Screen. Data for tumor model L1210 Leukemia (intraperitoneal) in B6D2F1 (BDF1) mice. Conditions: T/C endpoint: mean survival time, higher T/C = longer survival.
Where [1] appears, read: dose: 25.0 mg/kg/injection, schedule: Q01DX015 (ip), vehicle: carboxymethylcellulose (CMC).
Where [2] appears, read: dose: 400.0 mg/kg/injection, schedule: Q01DX001 (ip), vehicle: DMSO.
[3] abbreviates: dose: 400.0 mg/kg/injection, schedule: Q04DX003 (ip), vehicle: saline.
Where [4] appears, read: dose: 400.0 mg/kg/injection, schedule: Q01DX009 (ip), vehicle: Klucel (hydroxypropylcellulose) (HPC).

Regarding `COc1cc(N(CCCl)CCCl)ccc1C=Nc1ccccc1C(=O)O`, the T/C runs as follows: (dose: 3.5 mg/kg/injection, schedule: Q01DX015 (ip), vehicle: carboxymethylcellulose (CMC)) 125 % of control; (dose: 5.3 mg/kg/injection, schedule: Q01DX015 (ip), vehicle: carboxymethylcellulose (CMC)) 125 and 132 % of control; (dose: 7.1 mg/kg/injection, schedule: Q01DX015 (ip), vehicle: carboxymethylcellulose (CMC)) 127 % of control; (dose: 9.0 mg/kg/injection, schedule: Q01DX015 (ip), vehicle: carboxymethylcellulose (CMC)) 138 and 142 % of control; (dose: 10.0 mg/kg/injection, schedule: Q01DX001 (ip), vehicle: carboxymethylcellulose (CMC)) 131 % of control; (dose: 15.0 mg/kg/injection, schedule: Q01DX015 (ip), vehicle: carboxymethylcellulose (CMC)) 146 % of control. The T/C under setting [1] was 97 and 125 % of control; the T/C (dose: 40.0 mg/kg/injection, schedule: Q01DX001 (ip), vehicle: carboxymethylcellulose (CMC)) was 140 % of control; the T/C (dose: 50.0 mg/kg/injection, schedule: Q01DX001 (ip), vehicle: carboxymethylcellulose (CMC)) is 125 % of control. Moreover, the survivor count was 5 of 6 and 6 of 6 under setting [1]; 0 of 6 (dose: 35.0 mg/kg/injection, schedule: Q01DX015 (ip), vehicle: carboxymethylcellulose (CMC)); 0 of 6 (dose: 55.0 mg/kg/injection, schedule: Q01DX015 (ip), vehicle: carboxymethylcellulose (CMC)); 1 of 4 (dose: 75.0 mg/kg/injection, schedule: Q01DX001 (ip), vehicle: carboxymethylcellulose (CMC)); 1 of 4 (dose: 80.0 mg/kg/injection, schedule: Q01DX001 (ip), vehicle: carboxymethylcellulose (CMC)); 0 of 6 (dose: 80.0 mg/kg/injection, schedule: Q01DX015 (ip), vehicle: carboxymethylcellulose (CMC)). Also, the survivor count is, setting by setting: (dose: 100.0 mg/kg/injection, schedule: Q01DX001 (ip), vehicle: carboxymethylcellulose (CMC)) 0 of 4 and 1 of 4; (dose: 200.0 mg/kg/injection, schedule: Q01DX001 (ip), vehicle: carboxymethylcellulose (CMC)) 0 of 4; (dose: 400.0 mg/kg/injection, schedule: Q01DX001 (ip), vehicle: carboxymethylcellulose (CMC)) 0 of 4.

In the case of `NC(N)=NCCS(=O)(=O)Nc1ccc(Nc2c3ccccc3nc3cc([N+](=O)[O-])ccc23)cc1`, the T/C runs as follows: (dose: 1.5 mg/kg/injection, schedule: Q01DX009 (ip), vehicle: water) 134 % of control; (dose: 3.0 mg/kg/injection, schedule: Q01DX009 (ip), vehicle: water) 147 % of control; (dose: 6.25 mg/kg/injection, schedule: Q04DX003 (ip), vehicle: water) 147 % of control; (dose: 12.5 mg/kg/injection, schedule: Q04DX003 (ip), vehicle: water) 140 % of control.

Take `Clc1ccccc1Nc1ccnc(SCc2ccccc2)n1`: the survivor count is 5 of 6 (dose: 200.0 mg/kg/injection, schedule: Q01DX001 (ip), vehicle: DMSO) and 6 of 6 under setting [2].

`CCCOP(OCCC)OCCC`: the survivor count under setting [3] is reported as 1 of 6.

Regarding `COc1cc(C=C(C#N)C#N)cc(I)c1O`, the survivor count reads like this: (dose: 100.0 mg/kg/injection, schedule: Q04DX003 (ip), vehicle: Klucel (hydroxypropylcellulose) (HPC)) 2 of 6 and 3 of 6; (dose: 200.0 mg/kg/injection, schedule: Q04DX003 (ip), vehicle: Klucel (hydroxypropylcellulose) (HPC)) 0 of 6; (dose: 400.0 mg/kg/injection, schedule: Q04DX003 (ip), vehicle: Klucel (hydroxypropylcellulose) (HPC)) 0 of 6.

In the case of `C1CC[N-]CC1.Oc1ccccc1C=NCCN=Cc1ccccc1O.[Co]`, the survivor count by setting is: (dose: 12.5 mg/kg/injection, schedule: Q04DX002 (ip), vehicle: saline with Tween-80) 0 of 3; (dose: 25.0 mg/kg/injection, schedule: Q04DX002 (ip), vehicle: saline with Tween-80) 0 of 3; (dose: 100.0 mg/kg/injection, schedule: Q04DX002 (ip), vehicle: saline) 0 of 3; (dose: 200.0 mg/kg/injection, schedule: Q04DX002 (ip), vehicle: saline) 0 of 3; (dose: 400.0 mg/kg/injection, schedule: Q04DX002 (ip), vehicle: saline) 0 of 3.

For the compound `Cc1cc(=S)cc(C)o1`, the survivor count (dose: 400.0 mg/kg/injection, schedule: Q04DX002 (ip), vehicle: gum acacia) is recorded as 1 of 3.

For the compound `CCOC(=O)c1ccc(NC(=S)Nc2ccccc2S)cc1`, the survivor count is on record as 1 of 3 (dose: 200.0 mg/kg/injection, schedule: Q04DX002 (ip), vehicle: saline with Tween-80) and 0 of 3 (dose: 400.0 mg/kg/injection, schedule: Q04DX002 (ip), vehicle: saline with Tween-80).

As to `CCC(N)CC`, the survivor count (dose: 75.0 mg/kg/injection, schedule: Q01DX009 (ip), vehicle: saline) is on record as 6 of 6; the survivor count (dose: 300.0 mg/kg/injection, schedule: Q01DX009 (ip), vehicle: saline) is 0 of 6 and 6 of 6; the survivor count under setting [3] is listed as 2 of 6.

For `CCCC(=O)c1ccc(OC)c(OC)c1`, the survivor count under setting [4] is listed as 3 of 6.

Regarding `CC1(C)N=C(N)N=C(N)N1c1ccc(/C=C/C(=O)Nc2ccc(S(=O)(=O)F)cc2)cc1`, the survivor count (dose: 300.0 mg/kg/injection, schedule: Q01DX001 (ip), vehicle: Klucel (hydroxypropylcellulose) (HPC)) is listed as 6 of 6.

For the compound `COc1ccccc1C(CC(=O)c1ccccc1)Sc1ccccc1N` (centres undefined), the survivor count (dose: 200.0 mg/kg/injection, schedule: Q01DX005 (ip), vehicle: Klucel (hydroxypropylcellulose) (HPC)) is reported as 3 of 3.

As to `O=C1C=CC(=Nc2cc(Cl)c(O)c(Cl)c2)C(Cl)=C1`, the survivor count (dose: 50.0 mg/kg/injection, schedule: Q01DX009 (ip), vehicle: Klucel (hydroxypropylcellulose) (HPC)) is 0 of 3; the survivor count (dose: 100.0 mg/kg/injection, schedule: Q01DX009 (ip), vehicle: Klucel (hydroxypropylcellulose) (HPC)) is 0 of 3; the survivor count (dose: 200.0 mg/kg/injection, schedule: Q01DX009 (ip), vehicle: Klucel (hydroxypropylcellulose) (HPC)) is 0 of 3.

In the case of `Cc1cc(C(=O)O)c(C)o1`, the survivor count under setting [4] was 3 of 6.

On to `CO[C](=O)[Hg][O]C(C)=O`, for which the survivor count reads like this: (dose: 12.5 mg/kg/injection, schedule: Q04DX002 (ip), vehicle: Klucel (hydroxypropylcellulose) (HPC)) 3 of 3; (dose: 25.0 mg/kg/injection, schedule: Q04DX002 (ip), vehicle: Klucel (hydroxypropylcellulose) (HPC)) 0 of 3; (dose: 50.0 mg/kg/injection, schedule: Q04DX002 (ip), vehicle: Klucel (hydroxypropylcellulose) (HPC)) 0 of 3; (dose: 100.0 mg/kg/injection, schedule: Q04DX002 (ip), vehicle: Klucel (hydroxypropylcellulose) (HPC)) 0 of 3; (dose: 200.0 mg/kg/injection, schedule: Q04DX002 (ip), vehicle: Klucel (hydroxypropylcellulose) (HPC)) 0 of 3; (dose: 400.0 mg/kg/injection, schedule: Q04DX002 (ip), vehicle: Klucel (hydroxypropylcellulose) (HPC)) 0 of 3.

For `CCCN([Si](C)(C)C)[Si](C)(C)C`, the survivor count (dose: 400.0 mg/kg/injection, schedule: Q04DX003 (ip), vehicle: saline with Tween-80) was 3 of 6.

For `CN(C)Cc1ccc(N)cc1`, the survivor count runs as follows: (dose: 200.0 mg/kg/injection, schedule: Q01DX009 (ip), vehicle: water) 4 of 6; (dose: 400.0 mg/kg/injection, schedule: Q04DX003 (ip), vehicle: water) 0 of 6.

As for `O=P1(N(CCCl)CCCl)NC(OO)CCO1` (centres undefined), the survivor count is 4 of 10 (dose: 300.0 mg/kg/injection, schedule: Q01DX001 (ip), vehicle: DMSO) and 2 of 10 under setting [2].

In the case of `COc1ccc(C(C)C(C)=O)cc1` (centres undefined), the survivor count is, setting by setting: (dose: 100.0 mg/kg/injection, schedule: Q01DX009 (ip), vehicle: saline with Tween-80) 3 of 3; (dose: 200.0 mg/kg/injection, schedule: Q01DX009 (ip), vehicle: saline with Tween-80) 3 of 3.
